Data published in patent US20230024537A1, “Oral Delivery Compositions for Obesity Management” (BOARD OF REGENTS, THE UNIVERSITY OF TEXAS SYSTEM, priority 2021, published 2023).
For some of these results: At least one compound was matched to its structure with a doubt left. Some entries share one result that the patent states for a list of compounds.

What was measured:
GPR120 = settings: 1%, by down-regulating GPR120; cited from earlier work
[1] = tested on: high fat diet induced rat model; assay: Oral delivery of anti-leptin antibody or leptin protein in high fat diet induced rat model; format: in vivo; settings: treated rats versus untreated rats
Method: The inventors have developed an oral antibody or protein delivery platform and investigated feasibility using an anti-leptin antibody. […] The oral delivery vehicle facilitated enhancement of intestinal penetration of the antibody as well as protect the antibody from being damaged within the stomach in presence of acidic gastric juice. […] An oral dose of 5-10 μg leptin protein resulted 10-20% body weight reduction compared to the untreated high fat diet rat. […] Treated groups show less cholesterol contents in their blood which is within the normal range in opposed to the untreated animal that are observed with high cholesterol content.

PPARγ = settings: 4% DHA, by up-regulating PPARγ; cited from earlier work

## CC/C=C\C/C=C\C/C=C\C/C=C\C/C=C\CCCC(=O)O [EPA, eicosapentaenoic acid]
GPR120
  adipogenesis: inhibit adipogenesis

## leptin protein: Leptin protein (GenBank NP-000221), protein hormone of approx. 16 kDa formed by 146 amino acids
[1]
  food consumed less than untreated rats: 10-15%

## CC/C=C\C/C=C\C/C=C\C/C=C\C/C=C\C/C=C\CCC(=O)O [Docosahexaenoic acid, docosahexaenoic acid]
PPARγ
  browning of WAT: stimulates browning of WAT
  insulin resistance and inflammatory infiltration: improves insulin resistance and inflammatory infiltration
